Test results: PubChem BioAssay AID2685 (National Center for Advancing Translational Sciences (NCATS), 2010)
Hit rate of the full screen: of about 320,000 compounds, about 2,100 (0.66%) were called active. Inconclusive means that the source gave no clear call. Such entries were picked first, then a sample of the others. Calls follow the shape of the dose curve; as a rule, active = well fitted inhibition curve with a large enough effect in the signal ratio, with a control signal flat (not every such curve was filed as active); inconclusive = small, poorly fitted or top-dose-only effect, or effect the other way, or a change in a side signal; inactive = flat fitted curve, though single readings scatter; the % refers to the signal ratio. Potencies beside an inconclusive call are fits to weak or partial responses and may not hold up.

Assay: qHTS Assay for Lipid Storage Modulators in Drosophila S3 Cells
Conditions: BODIPY lipid droplet fluorescence, 18-24 h, cells fed with added oleic acid; lipid storage change, negative = inhibition: at 46.1 µM (top of the series) unless noted
How it was run: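 Drosophila S3 cells got compounds at several concentrations plus oleic acid (400 uM solution). Laser-scanning cytometry with 488 nm excitation read lipid droplets at 500-530 nm and cells at 575-640 nm. Percent activity was relative to 20 uM Triacsin C.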
% is scaled to controls: 0 for no effect and ±100 for the full control effect; potency is read from the fitted curve at half-maximal effect.

SMILES | lipid storage change, negative = inhibition | Potency
Cc1nc2ccc(NC(=O)c3ccc(F)c(S(=O)(=O)N4CCOCC4)c3)cc2s1 | inconclusive: 17% | 
O=C(Nc1ccc(-c2nc3ccccc3s2)c(O)c1)C1=COCCO1 | inconclusive: 47.5% | 
CC(C)CNC(=S)N1CCC(Cc2ccccc2)CC1 |  | inconclusive: 6.51 µM [rising, partial curve]
CCOC(=O)c1c(C)n(C)c2ccc(OC)c([N+](=O)[O-])c12 | inconclusive: 21.2% | 
Cc1cc(-c2ccc(C)c(S(=O)(=O)NC(C)Cc3ccco3)c2)on1 (centres undefined) | inconclusive: -6.93% | 
CC(C)N1CCc2c(sc(NC(=O)c3ccc([N+](=O)[O-])o3)c2C(N)=O)C1 |  | inconclusive: 4.11 µM [falling, partial curve, poor fit]
Cc1ccc(S(=O)(=O)Oc2cccc(/C=N/n3cnnc3)c2)cc1 |  | inconclusive: 9.2 µM [activator, partial curve, poor fit]
CCCCCC(=O)Nc1c(-c2cccs2)c(=O)c2ccccc2n1C | inconclusive: 64.5% | 
CC(C)(OC1OC(CO)C(O)C(O)C1O)[C@H]1Oc2ccc3ccc(=O)oc3c2[C@H]1O (some centres undefined) | inconclusive: -3.84% | 
O=C(Nc1cccc(O)c1)c1ccc(Br)cc1 | inconclusive: -6.31% | 
O=C1c2ccccc2C(=O)N1Cc1cc(Cl)c(O)c([N+](=O)[O-])c1 |  | inconclusive: 29.1 µM [activator, single point]
O=C(c1ccc(CS(=O)c2ccccc2Cl)o1)N1CCN(c2ccccc2)CC1 (centres undefined) | inconclusive: -100% | 
COc1ccccc1NC(=O)c1ccc(S(=O)(=O)NCc2ccco2)cc1 | inconclusive: -16.8% | 
COc1cc(CCC(=O)Nc2c(C(=O)N3CCN(c4ccccc4)CC3)oc3ccccc23)on1 |  | inconclusive: 10.3 µM [activator, partial curve]
O=C1CC(C(=O)N2CCc3ccccc32)CN1c1ccccc1 (centres undefined) | inconclusive: 48.2% | 
O=C(CSc1nnc(COc2ccc3c(c2)CCCC3)o1)Nc1ccc(F)cc1 | inconclusive: 20.7% | 
O=c1[nH]cnc2c1C(c1ccccc1[N+](=O)[O-])c1c(nc[nH]c1=O)O2 | inconclusive: -23.9% | 
CC(C)c1cc(C(=O)O)on1 | inconclusive: -3.44% | 
Cc1ccc(Cl)cc1N(CC(=O)Nc1cccc(N(C)S(C)(=O)=O)c1)S(C)(=O)=O |  | active: 14.6 µM
CC(=O)N=c1sccn1CC(O)c1ccc(Br)cc1 (centres undefined) | inconclusive: 19.9% | 
CCC(=O)N1CCc2cc(S(=O)(=O)NCCC(=O)N3CCc4ccccc4C3)ccc21 | inconclusive: -14.3% | 
CCS(=O)(=O)N1Cc2ccccc2CC1C(=O)Nc1ccc(OC)cc1OC (centres undefined) | inconclusive: -9.62% | 
Cc1ccc(C)c2[nH]c(=O)c(CN(Cc3ccco3)S(=O)(=O)c3ccc4c(c3)OCCO4)cc12 |  | inconclusive: 0.517 µM [activator, full curve]
CCc1ccc(N(C(=O)CCC(=O)Nc2cc(C)on2)C(C(=O)NC(C)(C)C)c2ccc(OC)cc2)cc1 (centres undefined) |  | inconclusive: 29.1 µM [activator, single point]
Cc1ccc(NC(=O)CSc2nc(C)c(Cc3ccccc3)c(=O)[nH]2)cc1C | inconclusive: 49.3% | 

SMILES | lipid storage change, negative = inhibition | Potency
COc1ccccc1CNC(=O)c1ccc2nc(N3CCOCC3)sc2c1 |  | inconclusive: 6.51 µM [activator, single point]
Cc1cc(C)cc(NC(=O)COC(=O)c2cc(=O)[nH]c(=O)[nH]2)c1 | inconclusive: -33.1% | 
CCN(CC)c1ccc(NC(=O)/C=C/c2cc(Br)ccc2OC)cc1 | inconclusive: -15.7% | 
CCn1c(-c2csc(-c3ccccc3)n2)n[nH]c1=S | inconclusive: 13.4% | 
CO/N=C/C(=N\Nc1ccc(OC)cc1)C(=O)c1ccc(OC)cc1 |  | inconclusive: 6.51 µM [activator, partial curve]
NCCCn1c(C(=O)c2cc(Cl)c(N)c(Cl)c2)c2ccc([N+](=O)[O-])cc2[n+]1[O-] | inconclusive: -79.3% | 
COc1ccc(-c2nnc(SC(C)C(=O)Nc3cccc(Cl)c3)o2)cc1 (centres undefined) |  | inconclusive: 29.1 µM [activator, single point]
COc1cc([N+](=O)[O-])cc(/C=N/NC(=O)c2ccc(C)nc2)c1O | inconclusive: -54.4% | 
COC(=O)c1ccc(NC(=O)c2cccc(NC(=O)c3ccccc3)c2)cc1 | inconclusive: -78.7% | 
c1ccc(-c2ccccc2OCCN2CCOCC2)cc1 | inconclusive: 10.9% | 
CC[C@@]12C(=O)N(c3cccc(C)c3)C(=O)N1[C@H](c1ccc(OC)cc1)[C@@H]1C(=O)N(C(C)(C)C)C(=O)[C@@H]12 |  | inconclusive: 1.64 µM [activator, partial curve]
NC(=O)c1cccc2c1-c1ccccc1/C2=N/NC(N)=S |  | inconclusive: 5.8 µM [falling, full curve]
CS(=O)(=O)N(CC(=O)Nc1ccc(Cl)c(Cl)c1)C1CCCCC1 | inconclusive: -11.1% | 
CCCCC(CC)CNC(=O)C(Cc1ccccc1)NS(=O)(=O)c1ccc2c(c1)CCC(=O)N2 (centres undefined) | inactive | 
CCOC(=O)c1c(C)[nH]c(C(=O)OCc2ccccc2F)c1C |  | inconclusive: 1.03 µM [activator, single point]
COc1cc(NC(=O)C2COc3ccccc3O2)c(OC)cc1Cl (centres undefined) |  | inconclusive: 1.3 µM [activator, partial curve]
OCCC1CN(C2CCSCC2)CCN1C1CCCC1 (centres undefined) | inconclusive: 22.7% | 
C=CCNC(=S)NNC(=O)C(CCC(C)C)CC(C)O (centres undefined) |  | inconclusive: 0.0517 µM [falling, full curve, poor fit]
CCc1c(C)sc(NC(=O)c2cccs2)c1C#N | inactive | 
CN(NS(=O)(=O)c1ccc(Cl)cc1)c1nc(C(F)(F)F)nc2ccccc12 | inconclusive: 16.8% | 
O=C(Cn1cc(C(F)(F)F)cc(Cl)c1=O)NCC1COc2ccccc2O1 (centres undefined) |  | inconclusive: 6.51 µM [activator, partial curve]
CC1Cc2ccccc2N1C(=O)C1CCCN(S(=O)(=O)c2cccc3cccnc23)C1 (centres undefined) | inconclusive: 51.4% | 
Cc1c(CCC(=O)NCCCn2ccnc2)c(=O)oc2c(C)c3oc4c(c3cc12)CCCC4 |  | inconclusive: 25.9 µM [falling, partial curve, poor fit]
Cc1nn(CC(=O)N2CCOCC2)c(=O)c2ccccc12 |  | inconclusive: 3.66 µM [activator, full curve]
Cc1cc(NC(=O)C(C)Oc2ccc(Cl)cc2Cl)n(-c2ccccc2)n1 (centres undefined) | inconclusive: -5.45% | 

14 of the compounds above, tab-delimited.
SMILES	lipid storage change, negative = inhibition	Potency
Cc1ccc(Cl)cc1N(CC(=O)Nc1cccc(N(C)S(C)(=O)=O)c1)S(C)(=O)=O		active: 14.6 µM
CC(=O)N=c1sccn1CC(O)c1ccc(Br)cc1 (centres undefined)	inconclusive: 19.9%	
CCC(=O)N1CCc2cc(S(=O)(=O)NCCC(=O)N3CCc4ccccc4C3)ccc21	inconclusive: -14.3%	
CCS(=O)(=O)N1Cc2ccccc2CC1C(=O)Nc1ccc(OC)cc1OC (centres undefined)	inconclusive: -9.62%	
Cc1ccc(C)c2[nH]c(=O)c(CN(Cc3ccco3)S(=O)(=O)c3ccc4c(c3)OCCO4)cc12		inconclusive: 0.517 µM [activator, full curve]
CCc1ccc(N(C(=O)CCC(=O)Nc2cc(C)on2)C(C(=O)NC(C)(C)C)c2ccc(OC)cc2)cc1 (centres undefined)		inconclusive: 29.1 µM [activator, single point]
Cc1ccc(NC(=O)CSc2nc(C)c(Cc3ccccc3)c(=O)[nH]2)cc1C	inconclusive: 49.3%	
COc1ccccc1CNC(=O)c1ccc2nc(N3CCOCC3)sc2c1		inconclusive: 6.51 µM [activator, single point]
Cc1cc(C)cc(NC(=O)COC(=O)c2cc(=O)[nH]c(=O)[nH]2)c1	inconclusive: -33.1%	
CCN(CC)c1ccc(NC(=O)/C=C/c2cc(Br)ccc2OC)cc1	inconclusive: -15.7%	
CCn1c(-c2csc(-c3ccccc3)n2)n[nH]c1=S	inconclusive: 13.4%	
CO/N=C/C(=N\Nc1ccc(OC)cc1)C(=O)c1ccc(OC)cc1		inconclusive: 6.51 µM [activator, partial curve]
NCCCn1c(C(=O)c2cc(Cl)c(N)c(Cl)c2)c2ccc([N+](=O)[O-])cc2[n+]1[O-]	inconclusive: -79.3%	
COc1ccc(-c2nnc(SC(C)C(=O)Nc3cccc(Cl)c3)o2)cc1 (centres undefined)		inconclusive: 29.1 µM [activator, single point]

Remaining list, next part.

SMILES | lipid storage change, negative = inhibition | Potency
COc1ccccc1CC1(C)NC(=O)N(CC(=O)N2CCc3ccccc3C2)C1=O (centres undefined) | inconclusive: -22.4% | 
CC(C)N=C1NN=C(c2cccs2)CS1 |  | inconclusive: 3.26 µM [falling, partial curve]
Cc1cc(C)cc(C(=O)NCC(=O)OC(C)C(=O)N(C)c2ccccc2)c1 (centres undefined) | inconclusive: 12.7% | 
Cn1c(N)c(C(=O)CSc2nc3ccccc3n2-c2ccccc2)c(=O)n(C)c1=O | inconclusive: 15% | 
NC(=O)COc1ccc(C(=O)NCC2(N3CCOCC3)CCCCC2)cc1 |  | inconclusive: 0.0103 µM [falling, full curve, poor fit]
O=C(Nc1ccc2c(c1)OCO2)C1CCCN1C(=O)Nc1ccccc1 (centres undefined) |  | inconclusive: 29.1 µM [activator, single point]
CCOc1ccc2nc(SCCNS(=O)(=O)c3ccccc3)sc2c1 |  | inconclusive: 0.0046 µM [rising, full curve, poor fit]
Oc1c(N=Nc2ccc(F)cc2)ccc2ccccc12 |  | active: 4.11 µM
OC1(C(F)(F)F)CC(c2ccc3ccccc3c2)=NO1 (centres undefined) | inconclusive: 9.26% | 
COc1ccc(C(=O)COC(=O)C(CCCCN2C(=O)C3C4C=CC(C4)C3C2=O)N2C(=O)C3C4C=CC(C4)C3C2=O)cc1 (centres undefined) | inconclusive: 0.234% | 
O=C(Cn1c2c(c(-c3ccccc3)cc1=O)CCCC2)N1CCCCCC1 | inconclusive: -6.29% | 
CCN(CC)CCN(Cc1cc2cc3c(cc2[nH]c1=O)OCCO3)C(=S)NCCCOC | inconclusive: -35.1% | 
O=C(CSc1n[nH]c(=O)[nH]c1=O)N/N=C/c1ccccc1O |  | inconclusive: 16.4 µM [activator, partial curve]
CCC1CCCCN1C(=O)/C=C/c1ccc2c(c1)OCO2 (centres undefined) |  | inconclusive: 29.1 µM [activator, single point]
COc1cccc(-c2nn(C)c3sc(C(=O)NCc4ccccn4)cc23)c1 |  | inconclusive: 1.16 µM [activator, full curve]
O=C(Nc1cccc(NC(=O)c2ccccc2Cl)c1)c1ccc(F)cc1 | inconclusive: -24.7% | 
O=C(COC(=O)CNS(=O)(=O)c1cccc(F)c1)NCCc1ccccc1 | inconclusive | 
O=C1NC(=Nc2ccccc2Cl)SC1(CO)CO | inconclusive: -27.6% | 
CCN=C1SC(C(=O)Nc2cccc(C(=O)O)c2)CC(=O)N1CC (centres undefined) |  | inconclusive: 6.51 µM [activator, single point]
Cc1csc(NC(=O)c2cc3c(s2)CCCCC3)n1 | inconclusive: 120% | 
Cc1ccccc1-c1nnn(CC(=O)N2CCN(C(=O)c3ccco3)CC2)n1 | inconclusive: 18.6% | 
O=C(O)c1cccc2c1C(=O)N(Cc1ccncc1)C2 | inconclusive: -0.171% | 
COc1cccc(CNc2ccc(F)c(Cl)c2)c1O |  | inconclusive: 6.51 µM [cytotoxic, single point]
CCN(CC(=O)NCCc1ccc(S(N)(=O)=O)cc1)Cc1ccccc1 |  | inconclusive: 5.17 µM [activator, full curve]
